Reference: PubChem BioAssay AID977622 (Broad Institute, 2014)
Some of the results follow. The main result of the screen is listed elsewhere. These columns were measured beside it and carry no call.

Key:
[1] = growth inhibition of wild-type GFP E. coli, dose response, h38 mutant RFP, cherry-pick (AID 977622); conditions: E. coli mixed culture, 24 h, total growth OD600 at 50 uM
[2] = test system: E. coli h38 humanized mutant ribosome RFP fluorescence, mixed culture, 24 h; experiment: as above; conditions: h38 mutant RFP at 50 uM

Compound	activity change [1]	activity change [2]
C[C@@H](Nc1nc(-c2ccccc2)nc2c1oc1ccccc12)C(=O)O	-5.92%	-20.7%
COc1ccc(C2=NN(C(=O)c3cccnc3)C(c3ccccc3)C2)cc1 (centres undefined)	-4.65%	11.2%
O=S(=O)(c1cnc(Cl)c(Cl)c1)N1CCc2ccccc21	-11.7%	14.1%
C[C@@H]1CN([C@H](C)CO)C(=O)CCCn2nncc2CO[C@@H]1CN(C)C(=O)Nc1ccc(C(F)(F)F)cc1	-35.5%	-10.2%
COc1ccc(C2CN=NC23CCc2ccccc2C3=O)cc1 (centres undefined)	-23.6%	
O=S1(=O)N[C@H](Cc2ccccc2)COc2cccc(N3CCC[C@H]3CO)c21	-63.2%	-34.9%
O=S1(=O)N[C@@H](Cc2ccccc2)COc2cc(N3CCC[C@H]3CO)ccc21	9.16%	59.2%
C(=C/c1nccc2c1[nH]c1ccccc12)/c1ccc2c(c1)OCO2	0.824%	-25.6%
N#Cc1cccc(-c2ccc3c(c2)[C@H]2[C@H](CCN2C(=O)c2ccccc2F)[C@H](CO)N3)c1	-37.6%	-10.3%
C[C@H]1CCCCO[C@H](CN(C)C)[C@@H](C)CN([C@@H](C)CO)C(=O)c2cc(NC(=O)Nc3cccc4ccccc34)ccc2O1	-16.9%	
CC(=O)NCCOc1nc(N2CCCCC2)nc(N2CCCCC2)n1	-24.8%	18.6%
COC(=O)c1cc(C(=O)c2c(C)cc3ccccn23)cc([N+](=O)[O-])c1	-3.82%	-1.14%
CC(C)(C)C1CCC(C(=O)OCC(=O)N2CCN(C(=O)c3ccco3)CC2)CC1 (centres undefined)	-11.6%	15.5%
O=C(NCc1ccccc1)c1nc(S(=O)(=O)Cc2ccccc2)ncc1Cl	-19.7%	16.6%
CCOC(=O)c1c(CS(=O)(=O)c2ccccc2)n(C)c2cc(Br)c(O)cc12	-45.9%	
O=C(Cc1cccnc1)N1CC(=O)N2[C@H](C1)[C@@H](c1ccc(C3=CCCCC3)cc1)[C@@H]2CO	-23.1%	1.04%
C[C@@H]1CN([C@H](C)CO)C(=O)c2cccc(NC(=O)Nc3ccc4c(c3)OCO4)c2O[C@@H]1CN(C)C(=O)Nc1ccc2c(c1)OCO2	-19.7%	27.7%
CN1CCN(C(=O)C[C@H]2CC[C@@H]3[C@H](COC[C@@H](O)CN3C(=O)Nc3ccc(Cl)cc3)O2)CC1	-59.4%	81.7%
COCC#Cc1ccc2c(c1)O[C@H](CN(C)C(=O)c1ccccc1)[C@@H](C)CN([C@H](C)CO)S2(=O)=O	-23.5%	-15.2%
COc1ccc(CN(C)C(=O)COC(=O)c2c(-c3ccccc3Cl)noc2C)cc1	-69.2%	-8.41%
O=S(=O)(c1ccccc1)N1C[C@@H]2[C@H](c3ccccc31)[C@H](CO)N2Cc1ccccc1	-75.3%	45.9%

Arranged by molecular weight (ascending): some entries from above
Compound	activity change [1]	activity change [2]
COc1ccc(C2CN=NC23CCc2ccccc2C3=O)cc1 (centres undefined)	-23.6%	
CC(=O)NCCOc1nc(N2CCCCC2)nc(N2CCCCC2)n1	-24.8%	18.6%
O=C(NCc1ccccc1)c1nc(S(=O)(=O)Cc2ccccc2)ncc1Cl	-19.7%	16.6%
